Values from PubChem BioAssay AID1259425 (University of Nebraska Medical Center, 2018).
This is a random part of about 14,000 deposited reagents. No sequences are given here. Not given: the time to read-out.

- Aim: 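Seek colon cancer weak points whose silencing resembles KSR1 loss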 (primary screen)
- System: HCT116 human colon cancer cells
- Reagent: siRNA pool against human genes, 50 nM siRNA
- Read-out: 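After 50 nM siRNA pool, branched-DNA assay measures six marker transcripts per well, minus blank, normalised to the geometric mean of two housekeeping transcripts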
- Scale: BNIP3L mRNA: higher = more BNIP3L transcript after knockdown; NDRG1 mRNA: higher = more NDRG1 transcript after knockdown; BNIP3 mRNA: higher = more BNIP3 transcript after knockdown; ALDOC mRNA: higher = more ALDOC transcript after knockdown; ACSL5 mRNA: higher = more ACSL5 transcript after knockdown

BNIP3L mRNA, set 1 | NDRG1 mRNA, set 1 | BNIP3 mRNA, set 1 | ALDOC mRNA, set 1 | ACSL5 mRNA, set 1 | target gene
0.0667 | 0.122 | 0.406 | 0.01 | 0.354 | ERBB4 (GeneID 2066)
0.0435 | 0.21 | 0.344 | 0.0339 | 0.151 | IWS1 (GeneID 55677)
0.0745 | 0.637 | 0.19 | 0.0235 | 0.114 | BOLL (GeneID 66037)
0.0874 | 0.0783 | 0.36 | 0.0298 | 0.125 | TTC31 (GeneID 64427)
0.0599 | 0.129 | 0.405 | 0.0549 | 0.116 | GLRX3 (GeneID 10539)
0.115 | 0.137 | 0.368 | 0.0258 | 0.151 | PDS5A (GeneID 23244)
0.103 | 0.417 | 0.337 | 0.0284 | 0.236 | TSHZ3 (GeneID 57616)
0.126 | 0.28 | 0.218 | 0.0232 | 0.207 | PSG3 (GeneID 5671)
0.0494 | 0.203 | 0.233 | 0.0242 | 0.113 | RHOC (GeneID 389)
0.156 | 0.676 | 0.449 | 0.00478 | 0.283 | TCF7L1 (GeneID 83439)
0.169 | 0.407 | 0.266 | 0.0201 | 0.17 | MZT2B (GeneID 80097)
0.102 | 0.142 | 0.381 | 0.0227 | 0.21 | FMO2 (GeneID 2327)
0.0876 | 0.281 | 0.213 | 0.0196 | 0.152 | METAP2 (GeneID 10988)
0.12 | 0.159 | 0.315 | 0.0637 | 0.137 | ATG4C (GeneID 84938)
0.133 | 0.494 | 0.502 | 0.0223 | 0.262 | NUDT21 (GeneID 11051)
0.0666 | 0.0586 | 0.25 | 0.0377 | 0.0628 | CEP19 (GeneID 84984)
0.139 | 0.208 | 0.227 | 0.0169 | 0.11 | MTAP (GeneID 4507)
0.0862 | 0.0749 | 0.301 | 0.011 | 0.152 | HSF1 (GeneID 3297)
0.0996 | 0.144 | 0.273 | 0.0233 | 0.141 | MPHOSPH8 (GeneID 54737)
0.102 | 0.148 | 0.232 | 0.0481 | 0.231 | FBXO21 (GeneID 23014)
0.104 | 0.417 | 0.338 | 0.062 | 0.371 | SENP7 (GeneID 57337)
0.0337 | 0.551 | 0.309 | 0.00787 | 0.29 | CSNK2A2 (GeneID 1459)
0.0955 | 0.15 | 0.369 | 0.026 | 0.108 | CACNA1B (GeneID 774)
0.0976 | 0.412 | 0.332 | 0.111 | 0.149 | L2HGDH (GeneID 79944)
0.183 | 0.104 | 0.274 | 0.0279 | 0.0534 | TP53AIP1 (GeneID 63970)
0.119 | 0.228 | 0.428 | 0.0208 | 0.0771 | CAPN6 (GeneID 827)
0.211 | 0.63 | 0.531 | 0.0725 | 0.246 | PNMA8A (GeneID 55228)
0.194 | 0.115 | 0.385 | 0.0421 | 0.323 | NUFIP2 (GeneID 57532)
0.1 | 0.157 | 0.352 | 0.0285 | 0.16 | IL1RAPL2 (GeneID 26280)
0.105 | 0.146 | 0.224 | 0.0287 | 0.11 | RAB25 (GeneID 57111)
0.0931 | 0.137 | 0.248 | 0.0278 | 0.0963 | KDELR2 (GeneID 11014)
0.165 | 0.507 | 0.308 | 0.0287 | 0.13 | ZNF140 (GeneID 7699)
0.0461 | 0.103 | 0.254 | 0.0229 | 0.109 | EGF (GeneID 1950)

Laid out differently: results already given.
{"target gene":"L2HGDH (GeneID 79944)","BNIP3L mRNA, set 1":0.0976,"NDRG1 mRNA, set 1":0.412,"BNIP3 mRNA, set 1":0.332,"ALDOC mRNA, set 1":0.111,"ACSL5 mRNA, set 1":0.149}
{"target gene":"TP53AIP1 (GeneID 63970)","BNIP3L mRNA, set 1":0.183,"NDRG1 mRNA, set 1":0.104,"BNIP3 mRNA, set 1":0.274,"ALDOC mRNA, set 1":0.0279,"ACSL5 mRNA, set 1":0.0534}
{"target gene":"CAPN6 (GeneID 827)","BNIP3L mRNA, set 1":0.119,"NDRG1 mRNA, set 1":0.228,"BNIP3 mRNA, set 1":0.428,"ALDOC mRNA, set 1":0.0208,"ACSL5 mRNA, set 1":0.0771}
{"target gene":"PNMA8A (GeneID 55228)","BNIP3L mRNA, set 1":0.211,"NDRG1 mRNA, set 1":0.63,"BNIP3 mRNA, set 1":0.531,"ALDOC mRNA, set 1":0.0725,"ACSL5 mRNA, set 1":0.246}
{"target gene":"NUFIP2 (GeneID 57532)","BNIP3L mRNA, set 1":0.194,"NDRG1 mRNA, set 1":0.115,"BNIP3 mRNA, set 1":0.385,"ALDOC mRNA, set 1":0.0421,"ACSL5 mRNA, set 1":0.323}
{"target gene":"IL1RAPL2 (GeneID 26280)","BNIP3L mRNA, set 1":0.1,"NDRG1 mRNA, set 1":0.157,"BNIP3 mRNA, set 1":0.352,"ALDOC mRNA, set 1":0.0285,"ACSL5 mRNA, set 1":0.16}
{"target gene":"RAB25 (GeneID 57111)","BNIP3L mRNA, set 1":0.105,"NDRG1 mRNA, set 1":0.146,"BNIP3 mRNA, set 1":0.224,"ALDOC mRNA, set 1":0.0287,"ACSL5 mRNA, set 1":0.11}
{"target gene":"KDELR2 (GeneID 11014)","BNIP3L mRNA, set 1":0.0931,"NDRG1 mRNA, set 1":0.137,"BNIP3 mRNA, set 1":0.248,"ALDOC mRNA, set 1":0.0278,"ACSL5 mRNA, set 1":0.0963}

Additional records follow.
BNIP3L mRNA, set 1 | NDRG1 mRNA, set 1 | BNIP3 mRNA, set 1 | ALDOC mRNA, set 1 | ACSL5 mRNA, set 1 | target gene
0.0962 | 0.137 | 0.339 | 0.0282 | 0.101 | FLVCR1 (GeneID 28982)
0.0543 | 0.144 | 0.245 | 0.0259 | 0.166 | ACP3 (GeneID 55)
0.11 | 0.132 | 0.213 | 0.0142 | 0.203 | RCAN3 (GeneID 11123)
0.0845 | 0.0785 | 0.26 | 0.00516 | 0.2 | CREB3 (GeneID 10488)
0.201 | 0.687 | 0.109 | 0.0329 | 0.234 | MSRB1 (GeneID 51734)
0.129 | 0.123 | 0.346 | 0.016 | 0.147 | CATSPER2 (GeneID 117155)
0.188 | 0.251 | 0.598 | 0.0876 | 0.248 | IFT56 (GeneID 79989)
0.0951 | 0.064 | 0.265 | 0.00888 | 0.0658 | DHODH (GeneID 1723)
0.156 | 0.175 | 0.353 | 0.0212 | 0.222 | CDADC1 (GeneID 81602)
0.122 | 0.889 | 0.162 | 0.0395 | 0.251 | GFUS (GeneID 7264)
0.221 | 0.202 | 0.352 | 0.0388 | 0.268 | OR2T1 (GeneID 26696)
0.0921 | 0.254 | 0.408 | 0.0231 | 0.152 | TGDS (GeneID 23483)
0.113 | 0.17 | 0.315 | 0.0182 | 0.244 | FBP1 (GeneID 2203)
0.0995 | 0.25 | 0.245 | 0.0125 | 0.0706 | MSX1 (GeneID 4487)
0.208 | 0.246 | 0.263 | 0.0341 | 0.368 | DHRS2 (GeneID 10202)
0.264 | 0.62 | 0.374 | 0.0362 | 0.259 | LIMCH1 (GeneID 22998)
0.0645 | 0.0811 | 0.321 | 0.0184 | 0.165 | MTFP1 (GeneID 51537)
